{"source": "PubChem BioAssay AID743454 (Peter MacCallum Cancer Centre, 2014)", "test": "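Knock-downs lowering viability or raising caspase 3/7 activity in vorinostat-treated resistant cells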 (primary screen)", "cell system": "human HCT116-VR colon cancer cells, selected for vorinostat resistance", "reagent": "siRNA pool against human genes, 40 nM siRNA pool", "time to read-out": "vorinostat for 24 h, read-out about 72 h after transfection", "treatment": "vorinostat at 2.5 µM final", "measured": "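Two measures, CellTiter-Fluor viability and luminescent caspase 3/7 activity, each as fold change against same-plate mock wells, mean of duplicates, then screen-wide robust z-score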", "scale": "viability robust z-score: higher = more viable cells than screen typical; caspase robust z-score: higher = more caspase 3/7 activity than screen typical", "call rule": "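Hits are knock-downs in viability class RV1/RV2 or caspase class CA1/CA2, excluding ones that killed cells in the no-drug cell-count arm; hits then retested with single siRNAs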", "note": "Shown is an unselected part of about 18,000 reagents. 450 of them (2.5%) were called active. 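Single biological run; no consistent viability z cut-off exists, so the class columns, not z-scores, define the calls.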"}
{"gene symbol": "GPR78 (GeneID 27201)", "viability hit class": "no change", "caspase hit class": "no change", "viability robust z-score": -0.11, "caspase robust z-score": 0.72, "call": "inactive"}
{"gene symbol": "CRNKL1 (GeneID 51340)", "viability hit class": "no change", "caspase hit class": "no change", "viability robust z-score": -3.59, "caspase robust z-score": 0.53, "call": "inactive"}
{"gene symbol": "ATP6V1B1 (GeneID 525)", "viability hit class": "no change", "caspase hit class": "no change", "viability robust z-score": -2.32, "caspase robust z-score": 4.74, "call": "inactive"}
{"gene symbol": "RASGEF1A (GeneID 221002)", "viability hit class": "no change", "caspase hit class": "no change", "viability robust z-score": -0.28, "caspase robust z-score": -0.18, "call": "inactive"}
{"gene symbol": "GDF7 (GeneID 151449)", "viability hit class": "no change", "caspase hit class": "no change", "viability robust z-score": -0.02, "caspase robust z-score": -0.72, "call": "inactive"}
{"gene symbol": "LZTS2 (GeneID 84445)", "viability hit class": "no change", "caspase hit class": "no change", "viability robust z-score": 0.04, "caspase robust z-score": 0.16, "call": "inactive"}
{"gene symbol": "NADK (GeneID 65220)", "viability hit class": "no change", "caspase hit class": "no change", "viability robust z-score": 0.33, "caspase robust z-score": -0.49, "call": "inactive"}
{"gene symbol": "METAP1 (GeneID 23173)", "viability hit class": "no change", "caspase hit class": "no change", "viability robust z-score": 0.74, "caspase robust z-score": -0.68, "call": "inactive"}
{"gene symbol": "DGAT2L6 (GeneID 347516)", "viability hit class": "no change", "caspase hit class": "no change", "viability robust z-score": 0.08, "caspase robust z-score": -1.06, "call": "inactive"}
{"gene symbol": "SCRIB (GeneID 23513)", "viability hit class": "no change", "caspase hit class": "no change", "viability robust z-score": -1.6, "caspase robust z-score": -0.68, "call": "inactive"}
{"gene symbol": "SSH1 (GeneID 54434)", "viability hit class": "no change", "caspase hit class": "no change", "viability robust z-score": 1.49, "caspase robust z-score": -0.58, "call": "inactive"}

3 entries from above, sorted by “viability robust z-score”, lowest first.
{"gene symbol": "CRNKL1 (GeneID 51340)", "viability hit class": "no change", "caspase hit class": "no change", "viability robust z-score": -3.59, "caspase robust z-score": 0.53, "call": "inactive"}
{"gene symbol": "ATP6V1B1 (GeneID 525)", "viability hit class": "no change", "caspase hit class": "no change", "viability robust z-score": -2.32, "caspase robust z-score": 4.74, "call": "inactive"}
{"gene symbol": "GPR78 (GeneID 27201)", "viability hit class": "no change", "caspase hit class": "no change", "viability robust z-score": -0.11, "caspase robust z-score": 0.72, "call": "inactive"}

Continued:
{"gene symbol": "SHFL (GeneID 55337)", "viability hit class": "no change", "caspase hit class": "no change", "viability robust z-score": -0.08, "caspase robust z-score": -0.71, "call": "inactive"}
{"gene symbol": "NXPH3 (GeneID 11248)", "viability hit class": "no change", "caspase hit class": "no change", "viability robust z-score": -1.63, "caspase robust z-score": 0.89, "call": "inactive"}
{"gene symbol": "CRY2 (GeneID 1408)", "viability hit class": "no change", "caspase hit class": "no change", "viability robust z-score": -0.38, "caspase robust z-score": -0.49, "call": "inactive"}
{"gene symbol": "CDKN2C (GeneID 1031)", "viability hit class": "no change", "caspase hit class": "no change", "viability robust z-score": 1.08, "caspase robust z-score": 2.17, "call": "inactive"}
{"gene symbol": "COLGALT2 (GeneID 23127)", "viability hit class": "no change", "caspase hit class": "no change", "viability robust z-score": 1.59, "caspase robust z-score": 0.68, "call": "inactive"}
{"gene symbol": "THAP5 (GeneID 168451)", "viability hit class": "no change", "caspase hit class": "no change", "viability robust z-score": 0.72, "caspase robust z-score": 0, "call": "inactive"}
{"gene symbol": "H4C6 (GeneID 8361)", "viability hit class": "no change", "caspase hit class": "no change", "viability robust z-score": -0.02, "caspase robust z-score": -1.34, "call": "inactive"}
{"gene symbol": "CA5A (GeneID 763)", "viability hit class": "no change", "caspase hit class": "no change", "viability robust z-score": -0.78, "caspase robust z-score": -1.39, "call": "inactive"}
{"gene symbol": "MAP2K2 (GeneID 5605)", "viability hit class": "no change", "caspase hit class": "no change", "viability robust z-score": -0.18, "caspase robust z-score": -0.98, "call": "inactive"}
{"gene symbol": "RPS6KC1 (GeneID 26750)", "viability hit class": "no change", "caspase hit class": "no change", "viability robust z-score": 0.14, "caspase robust z-score": 0.75, "call": "inactive"}
